Experiment [1] deals with recombinant E.coli-expressed cynomolgus IL-13 (cynomolgus). Description: sandwich ELISA.
The target is the same in experiment [2]. Description: sandwich ELISA on captured E.coli-expressed cynomolgus IL-13, titrated purified mAb.
Experiment [3] shares this target. Description: sandwich ELISA, CHO supernatant and purified antibody. On the technique in general: In an ELISA, binding on a coated surface is turned into a signal by an enzyme label.
For experiment [4] the target is unchanged. Description: sandwich ELISA: captured E.coli-expressed cynomolgus IL-13, titrated supernatant of CHO cells transfected with chimaeric 6A1.
For experiment [5] the target is unchanged. As to the kind of experiment: BIAcore. A general note: SPR reads the build-up and loss of mass on a sensor chip optically.
For experiment [6] the target is unchanged. As to the kind of experiment: Western blot after denaturing SDS-PAGE.

Results are given in words; binding and its absence hold for the method and conditions named. A result given as binding can be weak or reduced; the word gives no strength.

B1: chimaeric 6A1 monoclonal antibody (antibody, human IgG1, V domains shown)
VH: EIQLQQSVAELVRPGASVRLSCTASGFYIKDTYMHWVIQRPEQGLEWIGTIDPANGNTKYVPKFQGKATITADTSSNTAYLRLSSLTSEDTAIYYCARSIYDDYHYDDYYAMDYWGQGTSVTVSS
VL: DVLMTQTPLSLPVSLGDQASISCRSSQNIVHINGNTYLEWYLQKPGQSPKLLIYKISDRFSGVPDRFSGSGSGTDFTLKISRVEAEDLGVYYCFQGSHVPWTFGGGTKLEIK
For B1, the binding result in experiment [1], in experiment [2], in experiment [3] and in experiment [4] was “binds” in each case.

B2: mouse monoclonal antibody 6A1 (antibody, mouse IgG1, V domains shown)
VH: EIQLQQSVAELVRPGASVRLSCTASGFYIKDTYMHWVIQRPEQGLEWIGTIDPANGNTKYVPKFQGKATITADTSSNTAYLRLSSLTSEDTAIYYCARSIYDDYHYDDYYAMDYWGQGTSVTVSS
VL: DVLMTQTPLSLPVSLGDQASISCRSSQNIVHINGNTYLEWYLQKPGQSPKLLIYKISDRFSGVPDRFSGSGSGTDFTLKISRVEAEDLGVYYCFQGSHVPWTFGGGTKLEIK
With B2, the binding entry in experiment [5] and in experiment [6] was “binds” in each case.

B3: humanised anti-IL-13 antibody L1+A1 (antibody, human IgG1, kappa, V domains shown)
VH: QVQLVQSGAEVKKPGSSVKVSCKASGFYIKDTYMHWVRQAPGQGLEWMGTIDPANGNTKYVPKFQGRVTITADESTSTAYMELSSLRSEDTAVYYCARSIYDDYHYDDYYAMDYWGQGTLVTVSS
VL: DIVMTQSPLSLPVTPGEPASISCRSSQNIVHINGNTYLEWYLQKPGQSPRLLIYKISDRFSGVPDRFSGSGSGTDFTLKISRVEADDVGIYYCFQGSHVPWTFGQGTKLEIKR
Consider B3, for which the binding entry in experiment [1] and in experiment [2] was “binds” each time.

B4: humanised anti-IL-13 antibody L2+A1 (antibody, human IgG1, kappa, V domains shown)
VH: QVQLVQSGAEVKKPGSSVKVSCKASGFYIKDTYMHWVRQAPGQGLEWMGTIDPANGNTKYVPKFQGRVTITADESTSTAYMELSSLRSEDTAVYYCARSIYDDYHYDDYYAMDYWGQGTLVTVSS
VL: DIVMTQSPLSLPVTPGEPASISCRSSQNIVHINGNTYLEWYLQKPGQSPRLLIYKISDRFSGVPDRFSGSGSGTDFTLKISRVEADDVGVYYCFQGSHVPWTFGQGTKLEIKR
For B4, the binding result in experiment [1] and in experiment [2] was “binds” each time.

The values are drawn from patent publication US7807788.
